PubChem BioAssay AID1053209, Peter MacCallum Cancer Centre | 2014
Assay: 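Knock-downs that sensitise mouse osteosarcoma cells to doxorubicin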 (follow-up of hits). Cells: mouse primary osteosarcoma cells. Reagent: single siRNA against mouse genes, 25 nM (text also states 40 nM). Timing: about 120 h (48 h before drug, then 72 h with drug). Conditions: doxorubicin 100 nM (about IC30-40), added 48 h after transfection, for 72 h. Read-out: 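Viability measured by ATP luminescence with and without doxorubicin, each replicate scaled to non-targeting siRNA NT1, averaged over two replicates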. Reading the numbers: viability with doxorubicin, vs NT1: higher = more viable cells under doxorubicin; viability ratio, doxorubicin over no drug: higher = less sensitisation to doxorubicin; viability without drug, vs NT1: higher = more viable cells without drug. Active means: 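Counted as active (class LC dox) if viability falls to 0.7 of NT1 or below under doxorubicin but stays within 0.7 to 1.1 without drug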.
Shown is one part, drawn at random, of about 1,580 deposited reagents. In the full data, 207 (13%) got an active call. 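Rows are single siRNAs; four siRNAs per gene were tested, a gene counting as confirmed only when at least two agree.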 Entries without a mark were called inactive. The numbers tell different reagents against one gene apart.

Gene,reagent no.,combined effect class,"viability with doxorubicin, vs NT1","viability ratio, doxorubicin over no drug","viability without drug, vs NT1"
Psmb7,1,low viability with and without drug,0.31,0.55,0.56
Psmb7,2,normal viability with and without drug,0.78,0.95,0.82
Psmb7,3,low viability only with doxorubicin; normal without drug (active),0.64,0.85,0.75
Psmb7,4,normal viability with and without drug,0.74,0.95,0.78
Il1r1,1,normal viability with and without drug,1.05,1.02,1.03
Il1r1,2,normal viability with and without drug,1.04,1.04,1
Il1r1,3,normal viability with and without drug,1.06,1.06,1
Il1r1,4,low viability only with doxorubicin; normal without drug (active),0.42,0.55,0.76
Snrnp70,1,low viability only with doxorubicin; normal without drug (active),0.66,0.77,0.86
Snrnp70,2,normal viability with and without drug,0.84,0.9,0.93
Snrnp70,3,low viability only with doxorubicin; normal without drug (active),0.4,0.55,0.73
Snrnp70,4,normal viability with and without drug,0.92,0.99,0.93
Prkaa1,1,normal viability with and without drug,0.86,0.99,0.87
Prkaa1,2,normal viability with and without drug,1.05,0.97,1.08
Prkaa1,3,normal viability with and without drug,0.96,0.92,1.04
Prkaa1,4,normal viability with and without drug,0.98,0.93,1.05
Rdh19,1,normal viability with and without drug,0.92,0.97,0.95
Rdh19,2,normal viability with and without drug,0.9,0.85,1.06
Rdh19,3,low viability only with doxorubicin; normal without drug (active),0.44,0.54,0.82
Rdh19,4,normal viability with and without drug,1.02,1.02,1
Eny2,1,normal viability with and without drug,0.96,1.08,0.89
Eny2,2,normal viability with and without drug,0.84,0.82,1.02
Eny2,3,low viability only with doxorubicin; normal without drug (active),0.62,0.66,0.94
Eny2,4,normal viability with and without drug,1.03,1.07,0.96
Otp,1,high viability only with doxorubicin,1.12,1.12,1
Otp,2,low viability only with doxorubicin; normal without drug (active),0.62,0.71,0.87
Otp,3,normal viability with and without drug,0.86,0.8,1.07
Otp,4,normal viability with and without drug,0.97,0.98,0.99
Rit1,1,high viability only with doxorubicin,1.1,1.04,1.06
Rit1,2,normal viability with and without drug,1,1.02,0.98
Rit1,3,normal viability with and without drug,1.08,1.04,1.04
Rit1,4,normal viability with and without drug,1.02,1.16,0.88
Rplp0,1,low viability only with doxorubicin; normal without drug (active),0.63,0.81,0.78
Rplp0,2,low viability with and without drug,0.31,0.82,0.38
Rplp0,3,normal viability with and without drug,0.97,1.1,0.88
Rplp0,4,low viability with and without drug,0.44,0.81,0.54
Mrpl39,1,normal viability with and without drug,0.76,0.92,0.83
Mrpl39,2,normal viability with and without drug,0.92,0.91,1.01
Mrpl39,3,normal viability with and without drug,0.97,0.94,1.03
Mrpl39,4,low viability only with doxorubicin; normal without drug (active),0.69,0.85,0.81

Reagents listed so far with an active call, once more:
Gene,reagent no.,combined effect class,"viability with doxorubicin, vs NT1","viability ratio, doxorubicin over no drug","viability without drug, vs NT1"
Psmb7,3,low viability only with doxorubicin; normal without drug (active),0.64,0.85,0.75
Il1r1,4,low viability only with doxorubicin; normal without drug (active),0.42,0.55,0.76
Snrnp70,1,low viability only with doxorubicin; normal without drug (active),0.66,0.77,0.86
Snrnp70,3,low viability only with doxorubicin; normal without drug (active),0.4,0.55,0.73
Rdh19,3,low viability only with doxorubicin; normal without drug (active),0.44,0.54,0.82
Eny2,3,low viability only with doxorubicin; normal without drug (active),0.62,0.66,0.94
Otp,2,low viability only with doxorubicin; normal without drug (active),0.62,0.71,0.87
Rplp0,1,low viability only with doxorubicin; normal without drug (active),0.63,0.81,0.78
Mrpl39,4,low viability only with doxorubicin; normal without drug (active),0.69,0.85,0.81

More results follow.
Gene,reagent no.,combined effect class,"viability with doxorubicin, vs NT1","viability ratio, doxorubicin over no drug","viability without drug, vs NT1"
Rpl35a,1,low viability with and without drug,0.18,0.47,0.38
Rpl35a,2,low viability with and without drug,0.29,0.63,0.46
Rpl35a,3,low viability with and without drug,0.43,0.78,0.55
Rpl35a,4,low viability with and without drug,0.19,1.06,0.18
Nup160,1,low viability only with doxorubicin; normal without drug (active),0.58,0.82,0.71
Nup160,2,low viability with and without drug,0.44,0.77,0.57
Nup160,3,low viability with and without drug,0.48,0.73,0.66
Nup160,4,normal viability with and without drug,0.97,1.02,0.95
Rps21,1,low viability only with doxorubicin; normal without drug (active),0.62,0.75,0.83
Rps21,2,low viability with and without drug,0.32,0.5,0.64
Rps21,3,normal viability with and without drug,1.02,1.05,0.97
Rps21,4,low viability with and without drug,0.2,0.53,0.38
Rassf4,1,normal viability with and without drug,1.02,1.12,0.91
Rassf4,2,normal viability with and without drug,0.84,0.86,0.98
Rassf4,3,normal viability with and without drug,0.99,1.01,0.98
Rassf4,4,high viability only without drug,1.03,0.91,1.13
Tsc2,1,normal viability with and without drug,0.96,0.96,1
Tsc2,2,normal viability with and without drug,1,1.05,0.95
Tsc2,3,normal viability with and without drug,0.8,0.92,0.87
Tsc2,4,high viability only with doxorubicin,1.1,1.2,0.92
